The record followed here is article PMC2679207, “GLS-1, a Novel P Granule Component, Modulates a Network of Conserved RNA Regulators to Influence Germ Cell Fate Decisions” (PLoS Genetics, 2009).

Results are given in words; binding and its absence hold for the method and conditions named. Some binding calls cover weakened binding; strength is not graded here. Sequences can lack the tags named with a protein.

Experiment in all cases: two-hybrid; yeast; protein pairs fused to the LexA DNA binding domain and the Gal4 transcriptional activation domain; beta-galactosidase activities in arbitrary units
The target of assay [1] is T1, GLD-3S (yeast two-hybrid fusion) (C. elegans) (UniProt Q95ZK7).
T1 sequence: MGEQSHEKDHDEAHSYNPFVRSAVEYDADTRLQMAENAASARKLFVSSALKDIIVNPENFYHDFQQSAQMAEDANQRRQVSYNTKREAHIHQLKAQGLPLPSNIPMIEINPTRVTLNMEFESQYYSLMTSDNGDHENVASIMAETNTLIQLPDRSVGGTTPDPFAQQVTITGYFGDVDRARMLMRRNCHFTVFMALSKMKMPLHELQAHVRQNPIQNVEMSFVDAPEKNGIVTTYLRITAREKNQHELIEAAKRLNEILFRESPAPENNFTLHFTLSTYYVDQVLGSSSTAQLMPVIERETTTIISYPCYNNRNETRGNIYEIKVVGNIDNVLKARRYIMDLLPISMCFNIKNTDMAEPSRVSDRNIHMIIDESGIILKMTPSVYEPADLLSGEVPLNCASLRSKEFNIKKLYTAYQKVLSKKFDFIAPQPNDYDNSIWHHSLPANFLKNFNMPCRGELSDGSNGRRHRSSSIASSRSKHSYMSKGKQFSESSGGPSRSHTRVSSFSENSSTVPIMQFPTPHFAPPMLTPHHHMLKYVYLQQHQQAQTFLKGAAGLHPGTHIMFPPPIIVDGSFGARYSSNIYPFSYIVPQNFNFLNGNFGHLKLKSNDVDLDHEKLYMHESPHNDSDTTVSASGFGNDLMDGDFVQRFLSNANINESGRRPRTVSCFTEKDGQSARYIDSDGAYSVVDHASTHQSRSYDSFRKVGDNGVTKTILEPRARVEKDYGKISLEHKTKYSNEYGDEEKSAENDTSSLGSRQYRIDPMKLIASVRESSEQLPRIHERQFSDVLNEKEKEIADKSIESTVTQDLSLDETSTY

In assay [2] the target is T2, FBF-2 (yeast two-hybrid fusion) (C. elegans) (UniProt Q09312).
T2 sequence: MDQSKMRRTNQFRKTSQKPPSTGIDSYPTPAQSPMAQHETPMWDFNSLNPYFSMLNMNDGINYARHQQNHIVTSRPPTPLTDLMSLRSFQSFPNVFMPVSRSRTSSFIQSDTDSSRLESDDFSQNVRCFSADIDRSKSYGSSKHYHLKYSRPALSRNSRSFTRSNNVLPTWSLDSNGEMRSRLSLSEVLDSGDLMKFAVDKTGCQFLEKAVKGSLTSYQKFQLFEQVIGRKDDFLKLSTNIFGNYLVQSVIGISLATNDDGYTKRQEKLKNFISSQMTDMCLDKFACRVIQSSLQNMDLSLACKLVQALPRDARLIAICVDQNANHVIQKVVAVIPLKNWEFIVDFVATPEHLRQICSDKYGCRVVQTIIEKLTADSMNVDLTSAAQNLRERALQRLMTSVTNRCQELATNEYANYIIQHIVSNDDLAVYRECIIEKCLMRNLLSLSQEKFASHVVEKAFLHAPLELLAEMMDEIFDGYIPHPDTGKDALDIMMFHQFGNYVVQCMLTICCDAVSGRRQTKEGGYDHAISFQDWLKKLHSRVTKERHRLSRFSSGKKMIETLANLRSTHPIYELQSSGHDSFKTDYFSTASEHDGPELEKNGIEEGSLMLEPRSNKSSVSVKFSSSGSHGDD

Assay [3] has as its target T3, dmBic-C (yeast two-hybrid fusion) (Drosophila) (UniProt Q24009).
T3 sequence: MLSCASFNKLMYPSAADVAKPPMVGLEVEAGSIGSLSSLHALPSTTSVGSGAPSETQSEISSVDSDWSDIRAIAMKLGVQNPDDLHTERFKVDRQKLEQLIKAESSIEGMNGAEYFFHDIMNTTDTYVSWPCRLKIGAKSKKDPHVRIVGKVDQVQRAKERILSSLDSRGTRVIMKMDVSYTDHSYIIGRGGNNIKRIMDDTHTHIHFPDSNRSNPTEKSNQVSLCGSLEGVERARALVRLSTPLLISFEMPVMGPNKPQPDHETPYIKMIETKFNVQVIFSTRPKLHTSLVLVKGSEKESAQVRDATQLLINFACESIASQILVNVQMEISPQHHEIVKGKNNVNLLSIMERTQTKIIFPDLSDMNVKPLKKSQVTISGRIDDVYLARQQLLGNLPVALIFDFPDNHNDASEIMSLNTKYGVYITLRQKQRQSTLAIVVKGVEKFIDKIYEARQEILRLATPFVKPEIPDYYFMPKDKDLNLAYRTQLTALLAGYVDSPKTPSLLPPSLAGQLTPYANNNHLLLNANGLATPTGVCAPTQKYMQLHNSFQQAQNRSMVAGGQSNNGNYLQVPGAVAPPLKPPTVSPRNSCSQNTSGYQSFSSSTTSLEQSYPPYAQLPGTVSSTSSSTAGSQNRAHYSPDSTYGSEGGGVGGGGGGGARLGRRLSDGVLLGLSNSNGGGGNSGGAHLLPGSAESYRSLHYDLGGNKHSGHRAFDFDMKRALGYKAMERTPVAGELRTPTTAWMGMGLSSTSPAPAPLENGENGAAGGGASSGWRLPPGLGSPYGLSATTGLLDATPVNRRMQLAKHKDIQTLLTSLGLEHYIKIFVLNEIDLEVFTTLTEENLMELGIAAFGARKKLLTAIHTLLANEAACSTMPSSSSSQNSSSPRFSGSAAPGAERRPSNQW

B1: GLS-1 (yeast two-hybrid fusion) (protein, UniProt Q8I4M5 1-1052)
chain: MRCLISYLFHSFLIFLKFIRSDVTALTLQEKRKKSRLTGILMKSMANKKNHQQKKSTDGSTMNGNNATATAAATTQNSSQIGQNSNSSHSVTNDNTSSNNASTSTSSITSTTTTTTTVPSSQQSQSQNQYSHQRLSSTSSTSQQTGISKFPAKKAGHNELEKTSNTANSQSGAFKGTTNKDRPKEKEKNTHSGNRQSQVNHNHHHSNHVSGNQQNRKNKNRDHSNQSYRGGYTHNHNNYHSLENAKSSGFLSNSSLSSAGQISASSAPPVSTTPTAIPIFQESKIVQTDPPVEEAKKKKEKPKIKRDEEPMPYKSTDPKNMDSVMAFKEHDEWDKVEFMCELVSFLSPTDLRLLGNCIEGSVRCYNNQMRPVEKTSNCSDPTAGLPQFVCSPPPPPQQVYYFPGIADAALYQTRNAVNSVFVQQHPPGLPPLLGGMQNIMYPPDANFHHSTSCTTPSSSVSVANKDVNNVPVVLSSSVNGISNNIPSDRQQLDSKPNTARGSSGNINQSNTTSPEPEPGSNHISTTAANPAHPTSVTVPQSVPPVPQEPELFLKSVLDLTSYIYTLMAVCSSTNRKSAAKISDYVQNVILREKSQILERIPDELDKITVLQEIGKIVAAMTHHPAITLDDKMKYAALRDGLRAQIETLFRQYYTTQKQLEQSNLVVPSSQAVGDENDTDSDHESEEEFEPLSGVMGSRFESNPVQPSPSVPGTFFIIRFIGRQIEKNDNLFSLEIHWSDGDRTFAQRSRDQLKALQHRLLDEFGQQRSEKYLHQGCTTSYSSFDDDNKKLSASTSTMETFAPNGERIVPRLARDATPAQYVQYINELSDLPARMMLSAVICEEFNGTRAKTEDLLQETREASDGLIYSRWKNPRAKSPVRYFKRNATGSIDPIELPVNMQPFLYSNIPQTQVQTLFPSCSNCGGPHAPKHCEKQTLLSKKGDHRTRSDGEGSQQNGGTSSSNSYAPIHANLPHAVYIENPQAMLGSNHFNHHQQQHIIQNTIFHNGGQFRANGTYEPQIPIAYYHAQGTVQNSNNTGGVNGNSGGGNQNSNF
As for B1, the results for the binding entry in assay [1], in assay [2] and in assay [3] were “binds”, “no binding” and “no binding”, respectively.
